Test results taken from US20250154171A1, “RAS INHIBITORS” (Revolution Medicines, Inc., priority 2023, published 2025).
Some results were stated once for a whole list of compounds, not compound by compound.

Protein sequences, listed by entry. Tags and fused reporters are not part of them. Lines headed by an entry give the natural chain unless they say otherwise; changes in a name come on top. Residues count along the entry.
UniProt P01116, 1-188 isoform P01116-2 G12V: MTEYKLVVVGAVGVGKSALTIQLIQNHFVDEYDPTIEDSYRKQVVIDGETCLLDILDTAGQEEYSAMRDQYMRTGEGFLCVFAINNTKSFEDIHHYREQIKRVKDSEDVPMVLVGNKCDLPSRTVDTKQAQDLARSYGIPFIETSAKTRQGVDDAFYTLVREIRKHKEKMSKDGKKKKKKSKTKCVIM
UniProt P01116, 1-188 isoform P01116-2 G12A: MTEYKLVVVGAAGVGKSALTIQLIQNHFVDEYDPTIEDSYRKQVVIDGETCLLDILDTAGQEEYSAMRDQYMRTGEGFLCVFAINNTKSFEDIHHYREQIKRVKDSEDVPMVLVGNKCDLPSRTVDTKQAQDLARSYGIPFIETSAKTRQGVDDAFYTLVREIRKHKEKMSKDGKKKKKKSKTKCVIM
UniProt P62937, whole entry: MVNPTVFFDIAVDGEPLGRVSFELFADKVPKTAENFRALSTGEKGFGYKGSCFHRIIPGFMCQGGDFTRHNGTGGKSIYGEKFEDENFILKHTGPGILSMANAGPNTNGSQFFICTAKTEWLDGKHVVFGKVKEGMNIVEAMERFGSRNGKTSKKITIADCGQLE

How the values were obtained:
[1] = molecular target: K-RasG12V (Homo sapiens, UniProt P01116+P62937, G12V); experiment: Disruption of BRAF RBD interaction with K-Ras (TR-FRET / MOA assay), K-RasG12V; format: biochemical; settings: TR-FRET with cyclophilin A and GST-BRAF RBD, read-out: IC50 with respect to K-RasG12V (disruption of BRAF RBD interaction)
[2] = molecular target: K-RasG12A (Homo sapiens, UniProt P01116+P62937, G12A); experiment: Disruption of BRAF RBD interaction with K-Ras (TR-FRET / MOA assay), K-RasG12A; format: biochemical; settings: TR-FRET with cyclophilin A and GST-BRAF RBD, read-out: IC50 with respect to K-RasG12A (disruption of BRAF RBD interaction)
[3] = system: Capan-1 (K-Ras G12V); experiment: CellTiter-Glo cell viability assay, Capan-1; format: cell-based, human; settings: 5-day treatment, Capan-1 and/or NCI-H2009 versus A375

CO[C@@H](C)c1ncccc1-c1c2c3cc(ccc3n1CCOC1CCOCC1)-c1coc(n1)[C@@H](N1CC[C@H](F)C1)[C@H](NC(=O)[C@@H]1[C@@H](C)[C@H]1c1ccncn1)C(=O)N1CCC[C@H](N1)C(=O)OCC(C)(C)C2 (atropisomer, axis not shown) [Example A1116]
IC50 [1]: < 1 µM | IC50 [2]: < 1 µM | decrease in cell viability with respect to Capan-1 and/or NCI-H2009 versus wild-type KRAS (A375) [3]: greater decrease in cell viability

CO[C@@H](C)c1ncc(N2CCN(C3CC3)CC2)cc1-c1c2c3cc(ccc3n1CCOC1CCOCC1)-c1csc(n1)[C@@H](N1CC3(COC3)C1)[C@H](NC(=O)[C@@H]1[C@@H](C)[C@H]1c1ccncn1)C(=O)N1CCC[C@H](N1)C(=O)OCC(C)(C)C2 (atropisomer, axis not shown) [Example A1117]
IC50 [1]: < 1 µM | IC50 [2]: < 1 µM | decrease in cell viability with respect to Capan-1 and/or NCI-H2009 versus wild-type KRAS (A375) [3]: greater decrease in cell viability

CO[C@@H](C)c1ncccc1-c1c2c3cc(ccc3n1C1CN(C3CC3)C1)-c1coc(n1)[C@@H](N1CCN(C(C)=O)CC1)[C@H](NC(=O)[C@H]1[C@H](C)[C@@H]1c1ccncn1)C(=O)N1CCC[C@H](N1)C(=O)OCC(C)(C)C2 (atropisomer, axis not shown) [Example A1118]
IC50 [1]: < 1 µM | IC50 [2]: < 1 µM | decrease in cell viability with respect to Capan-1 and/or NCI-H2009 versus wild-type KRAS (A375) [3]: greater decrease in cell viability

CO[C@@H](C)c1ncccc1-c1c2c3cc(ccc3n1C1CN(C3CC3)C1)-c1coc(n1)[C@@H](N1CCN(C(C)=O)CC1)[C@H](NC(=O)[C@H]1[C@H](C)[C@@H]1C)C(=O)N1CCC[C@H](N1)C(=O)OCC(C)(C)C2 (atropisomer, axis not shown) [Example A1119]
IC50 [1]: < 1 µM | IC50 [2]: < 1 µM | decrease in cell viability with respect to Capan-1 and/or NCI-H2009 versus wild-type KRAS (A375) [3]: greater decrease in cell viability

CO[C@@H](C)c1ncccc1-c1c2c3cc(ccc3n1C1CN(C3CC3)C1)-c1csc(n1)[C@@H](N1CCN(C)CC1)[C@H](NC(=O)[C@@H]1[C@@H](C)[C@H]1c1ccncn1)C(=O)N1CCC[C@H](N1)C(=O)OCC(C)(C)C2 (atropisomer, axis not shown) [Example A1120]
IC50 [1]: < 1 µM | IC50 [2]: < 1 µM | decrease in cell viability with respect to Capan-1 and/or NCI-H2009 versus wild-type KRAS (A375) [3]: greater decrease in cell viability

CO[C@@H](C)c1ncccc1-c1c2c3cc(ccc3n1C1CN(C3CC3)C1)-c1csc(n1)[C@@H](N1CCN(C)CC1)[C@H](NC(=O)[C@H]1[C@H](C)[C@@H]1C)C(=O)N1CCC[C@H](N1)C(=O)OCC(C)(C)C2 (atropisomer, axis not shown) [Example A1121]
IC50 [1]: < 1 µM | IC50 [2]: < 1 µM | decrease in cell viability with respect to Capan-1 and/or NCI-H2009 versus wild-type KRAS (A375) [3]: greater decrease in cell viability

CO[C@@H](C)c1ncc(N2CCN(C3CC3)CC2)cc1-c1c2c3cc(ccc3n1CCOC1CCOCC1)-c1csc(n1)[C@@H](N1CC3(COC3)C1)[C@H](NC(=O)[C@H]1CCCN1C)C(=O)N1CCC[C@H](N1)C(=O)OCC(C)(C)C2 (atropisomer, axis not shown) [Example A1122]
IC50 [1]: < 1 µM | IC50 [2]: < 1 µM | decrease in cell viability with respect to Capan-1 and/or NCI-H2009 versus wild-type KRAS (A375) [3]: greater decrease in cell viability

CO[C@@H](C)c1ncc(N2CCN(C3CC3)CC2)cc1-c1c2c3cc(ccc3n1CCOC1CCOCC1)-c1csc(n1)[C@@H](N1CC3(COC3)C1)[C@H](NC(=O)[C@@H]1CCCN1C)C(=O)N1CCC[C@H](N1)C(=O)OCC(C)(C)C2 (atropisomer, axis not shown) [Example A1123]
IC50 [1]: < 1 µM | IC50 [2]: < 1 µM | decrease in cell viability with respect to Capan-1 and/or NCI-H2009 versus wild-type KRAS (A375) [3]: greater decrease in cell viability

CO[C@@H](C)c1ncccc1-c1c2c3cc(ccc3n1C1CN(C3CC3)C1)-c1csc(n1)[C@@H](N1CCC(c3ccncc3)CC1)[C@H](NC(=O)[C@@H]1[C@@H](C)[C@H]1c1ccncn1)C(=O)N1CCC[C@H](N1)C(=O)OCC(C)(C)C2 (atropisomer, axis not shown) [Example A1125]
IC50 [1]: < 1 µM | IC50 [2]: < 1 µM | decrease in cell viability with respect to Capan-1 and/or NCI-H2009 versus wild-type KRAS (A375) [3]: greater decrease in cell viability

CO[C@@H](C)c1ncccc1-c1c2c3cc(ccc3n1C1CN(C3CC3)C1)-c1csc(n1)[C@@H](N1CCC(c3ccncc3)CC1)[C@H](NC(=O)[C@H]1[C@H](C)[C@@H]1C)C(=O)N1CCC[C@H](N1)C(=O)OCC(C)(C)C2 (atropisomer, axis not shown) [Example A1126]
IC50 [1]: < 1 µM | IC50 [2]: < 1 µM | decrease in cell viability with respect to Capan-1 and/or NCI-H2009 versus wild-type KRAS (A375) [3]: greater decrease in cell viability

CO[C@@H](C)c1ncccc1-c1c2c3cc(ccc3n1C1CN(C3CC3)C1)-c1coc(n1)[C@@H](N1CC3(COC3)C1)[C@H](NC(=O)[C@@H]1[C@@H](C)[C@H]1c1ccncn1)C(=O)N1CCC[C@H](N1)C(=O)OCC(C)(C)C2 (atropisomer, axis not shown) [Example A1127]
IC50 [1]: < 1 µM | IC50 [2]: < 1 µM | decrease in cell viability with respect to Capan-1 and/or NCI-H2009 versus wild-type KRAS (A375) [3]: greater decrease in cell viability

CO[C@@H](C)c1ncc(N2CCN(C3CC3)CC2)cc1-c1c2c3cc(ccc3n1CCOC1CCOCC1)-c1csc(n1)[C@@H](N1CC3(COC3)C1)[C@H](NC(=O)C1CCN(c3ccccn3)CC1)C(=O)N1CCC[C@H](N1)C(=O)OCC(C)(C)C2 (atropisomer, axis not shown) [Example A1129]
IC50 [1]: < 1 µM | IC50 [2]: < 1 µM | decrease in cell viability with respect to Capan-1 and/or NCI-H2009 versus wild-type KRAS (A375) [3]: greater decrease in cell viability

CO[C@@H](C)c1ncccc1-c1c2c3cc(ccc3n1C1CN(C3CC3)C1)-c1csc(n1)[C@@H](N1CCN(C(C)=O)CC1)[C@H](NC(=O)[C@H]1[C@H](C)[C@@H]1c1ccncn1)C(=O)N1CCC[C@H](N1)C(=O)OCC(C)(C)C2 (atropisomer, axis not shown) [Example A1131]
IC50 [1]: < 1 µM | IC50 [2]: < 1 µM | decrease in cell viability with respect to Capan-1 and/or NCI-H2009 versus wild-type KRAS (A375) [3]: greater decrease in cell viability

CO[C@@H](C)c1ncccc1-c1c2c3cc(ccc3n1C1CN(C3CC3)C1)-c1csc(n1)[C@@H](N1CC3(COC3)C1)[C@H](NC(=O)[C@H](C(C)C)N(C)C)C(=O)N1CCC[C@H](N1)C(=O)OCC(C)(C)C2 (atropisomer, axis not shown) [Example A1132]
IC50 [1]: < 1 µM | IC50 [2]: < 1 µM | decrease in cell viability with respect to Capan-1 and/or NCI-H2009 versus wild-type KRAS (A375) [3]: greater decrease in cell viability

CO[C@@H](C)c1ncc(N2CCN(C3CC3)CC2)cc1-c1c2c3cc(ccc3n1CCOC1CCOCC1)-c1csc(n1)[C@@H](N1CC3(COC3)C1)[C@H](NC(=O)[C@H]1CN(C)CCO1)C(=O)N1CCC[C@H](N1)C(=O)OCC(C)(C)C2 (atropisomer, axis not shown) [Example A1133]
IC50 [1]: < 1 µM | IC50 [2]: < 1 µM | decrease in cell viability with respect to Capan-1 and/or NCI-H2009 versus wild-type KRAS (A375) [3]: greater decrease in cell viability

CO[C@@H](C)c1ncc(N2CCN(C3CC3)CC2)cc1-c1c2c3cc(ccc3n1CCOC1CCOCC1)-c1csc(n1)[C@@H](N1CC3(COC3)C1)[C@H](NC(=O)[C@@H]1CN(C)CCO1)C(=O)N1CCC[C@H](N1)C(=O)OCC(C)(C)C2 (atropisomer, axis not shown) [Example A1134]
IC50 [1]: < 1 µM | IC50 [2]: < 1 µM | decrease in cell viability with respect to Capan-1 and/or NCI-H2009 versus wild-type KRAS (A375) [3]: greater decrease in cell viability

CO[C@@H](C)c1ncc(N2CCN(C3CC3)CC2)cc1-c1c2c3cc(ccc3n1CCOC1CCOCC1)-c1csc(n1)[C@@H](N1CC3(COC3)C1)[C@H](NC(=O)[C@H]1COCCN1C)C(=O)N1CCC[C@H](N1)C(=O)OCC(C)(C)C2 (atropisomer, axis not shown) [Example A1135]
IC50 [1]: < 1 µM | IC50 [2]: < 1 µM | decrease in cell viability with respect to Capan-1 and/or NCI-H2009 versus wild-type KRAS (A375) [3]: greater decrease in cell viability

CO[C@H]1CN(C)C2(C1)CN([C@@H]1c3nc(cs3)-c3ccc4c(c3)c(c(-c3cccnc3[C@H](C)OC)n4C3CN(C4CC4)C3)CC(C)(C)COC(=O)[C@@H]3CCCN(N3)C(=O)[C@H]1NC(=O)[C@@H]1[C@@H](C)[C@H]1c1ccncn1)C2 (atropisomer, axis not shown) [Example A1136]
IC50 [1]: < 1 µM | IC50 [2]: < 1 µM | decrease in cell viability with respect to Capan-1 and/or NCI-H2009 versus wild-type KRAS (A375) [3]: greater decrease in cell viability

CO[C@@H](C)c1ncc(N2CCN(C3CC3)CC2)cc1-c1c2c3cc(ccc3n1C1CN(C3CC3)C1)-c1csc(n1)[C@@H](N1CC3(CCCN3C)C1)[C@H](NC(=O)[C@@H]1[C@@H](C)[C@H]1c1ncncn1)C(=O)N1CCC[C@H](N1)C(=O)OCC(C)(C)C2 (atropisomer, axis not shown) [Example A1137]
IC50 [1]: < 1 µM | IC50 [2]: < 1 µM | decrease in cell viability with respect to Capan-1 and/or NCI-H2009 versus wild-type KRAS (A375) [3]: greater decrease in cell viability

CO[C@@H](C)c1ncccc1-c1c2c3cc(ccc3n1C1CN(C3CC3)C1)-c1csc(n1)[C@@H](N1CC3(CCCN3C)C1)[C@H](NC(=O)[C@@H]1[C@@H](C)[C@H]1C1CC1)C(=O)N1CCC[C@H](N1)C(=O)OCC(C)(C)C2 (atropisomer, axis not shown) [Example A1138]
IC50 [1]: < 1 µM | IC50 [2]: < 1 µM | decrease in cell viability with respect to Capan-1 and/or NCI-H2009 versus wild-type KRAS (A375) [3]: greater decrease in cell viability

CO[C@@H](C)c1ncccc1-c1c2c3cc(ccc3n1[C@H]1C[C@@H](C#N)C1)-c1coc(n1)[C@@H](N1CC3(CCN3)C1)[C@H](NC(=O)[C@H]1[C@H](C)[C@@H]1C)C(=O)N1CCC[C@H](N1)C(=O)OCC(C)(C)C2 (atropisomer, axis not shown) [Example A1141]
IC50 [1]: < 1 µM | IC50 [2]: < 1 µM | decrease in cell viability with respect to Capan-1 and/or NCI-H2009 versus wild-type KRAS (A375) [3]: greater decrease in cell viability
